Data as given in PubChem BioAssay AID1259274 (Sanger Institute, 2017)

Aim: 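Kinases RKO cells need to grow, alone or with anchor drugs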 (primary screen)
Cell system: human RKO colorectal cancer cells
Knock-down reagent: siRNA pool against human genes
Challenge: anchor drugs BYL719 at 1 µM, cetuximab at 5 µg/ml or trametinib at 10 nM; DMSO vehicle as the no-drug arm
Detection: 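Viability as fraction of non-targeting pool 2 control, averaged across replicates, robust z-score for single knock-down, and a combination synergy score per anchor drug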
Reading the numbers: viability z-score, siRNA alone: higher = more viable cells; low values mean essential gene
Call rule: 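a single knock-down scoring under -3 on the robust z-score, meaning fewer cells, counts as essential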
Calls: active = essential when knocked down alone; inactive = no change alone
The whole screen tested 794 reagents; shown is a part drawn at random. 11 of all reagents (1.4%) were called active. 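Calls rest on knock-down without drug only; synergy scores with anchor drugs were not used for the essential call.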 Unmarked entries are inactive. Not all columns of the deposit are shown. Not given: the amount of reagent, the time to read-out.

| gene | viability z-score, siRNA alone |
| --- | --- |
| DGKI | 0.377 |
| ERBB2 | 0.111 |
| RUNX1 | -0.564 |
| SRPK3 | 1.19 |
| DGKK | 0.371 |
| CDC73 | -4.89 (active) |
| PGK1 | 0.131 |
| STK36 | -0.538 |
| BRWD1 | 0.414 |
| PTPRU | -1.38 |
| TEX14 | 1.19 |
| PRAG1 | -0.0388 |
| TAB1 | -0.329 |
| MKNK2 | 0.183 |
| CHEK1 | -3.09 (active) |
| CILK1 | 1.14 |
| PAK4 | 0.761 |
| CKB | 0.916 |
| NME5 | 0.145 |
| PKN2 | 0.0915 |
| PTK2B | -0.541 |
| PIP5K1C | 0.755 |
| CAMK2G | 0.34 |
| PRKAG1 | 0.0967 |
| PIK3R4 | -0.616 |
| RIOK3 | 0.41 |
| MAP2K3 | -1.37 |
| DLG2 | 0.338 |
| NTRK1 | -0.789 |
| CLSPN | -2.82 |
| STRADB | 1.04 |
| TEK | 1.19 |
| SCYL1 | 0.422 |
| FGFRL1 | 1.19 |
| FER | -0.0122 |
| GUCY2F | -1.33 |
| RFK | -0.41 |
| IRAK4 | 0.189 |
| PI4K2B | -1.52 |
| MET | 0.311 |
| CAMKK2 | 0.338 |
| MPP1 | 1.19 |
| PNCK | 0.214 |
| FLT4 | 0.872 |
| FES | -2.19 |
| PKIB | 0.915 |
| MAP4K5 | 0.376 |
| AK4 | 0.03 |
| NIM1K | 0.0819 |
| STK17A | -0.756 |
| MYO3B | -0.338 |
| ARID1A | -0.578 |
| PTEN | 1.19 |
| PDK1 | -0.561 |
| DGKA | -1.02 |
| UHMK1 | 1.14 |
| MAP4K2 | -0.484 |
| HK3 | 1.19 |
| EFNA5 | 1.19 |
| AURKB | 0.331 |
| CKM | -1.52 |
| SYNCRIP | 0.00973 |
| BRAF | -1.87 |
